These are yes or no findings as the source states them, for the method shown. In cells and extracts the contact can be indirect. Some results given as binding are weak or reduced against the parent protein; the word gives no strength. Sequences can lack the tags named with a protein.
T1: STAT1-EGFP (signal transducer and activator of transcription 1) (UniProt P42225)
T1 sequence: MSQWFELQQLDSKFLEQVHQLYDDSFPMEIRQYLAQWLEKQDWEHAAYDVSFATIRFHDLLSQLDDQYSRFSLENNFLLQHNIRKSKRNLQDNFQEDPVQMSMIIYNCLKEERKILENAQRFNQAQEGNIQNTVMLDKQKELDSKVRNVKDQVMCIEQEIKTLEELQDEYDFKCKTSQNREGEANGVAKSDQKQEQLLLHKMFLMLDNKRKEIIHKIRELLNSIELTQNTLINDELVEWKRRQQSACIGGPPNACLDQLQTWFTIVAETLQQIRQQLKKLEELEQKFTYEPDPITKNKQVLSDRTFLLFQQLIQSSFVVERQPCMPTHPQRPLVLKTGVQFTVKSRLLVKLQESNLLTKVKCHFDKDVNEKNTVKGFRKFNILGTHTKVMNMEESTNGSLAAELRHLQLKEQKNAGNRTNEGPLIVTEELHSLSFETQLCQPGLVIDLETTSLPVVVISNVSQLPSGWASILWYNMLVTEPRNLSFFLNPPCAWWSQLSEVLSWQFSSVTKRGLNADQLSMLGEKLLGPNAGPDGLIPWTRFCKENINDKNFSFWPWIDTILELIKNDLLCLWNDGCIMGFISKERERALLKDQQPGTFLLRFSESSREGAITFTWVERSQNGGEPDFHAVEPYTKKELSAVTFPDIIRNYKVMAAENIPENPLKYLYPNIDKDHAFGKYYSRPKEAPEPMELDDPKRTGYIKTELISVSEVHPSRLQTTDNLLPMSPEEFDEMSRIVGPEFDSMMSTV


Columns and labels:
[1] = target: Mouse VCP (valosin-containing protein), Myc-tagged (mouse) (UniProt Q01853); assay: co-IP; 293T cells expressing VCP-Myc, STAT1-EGFP and Epsti1-SRT or its truncation mutants; RIPA lysates, antibody plus Protein A/G agarose beads, immunoblot
[2] = target: T1, STAT1-EGFP (signal transducer and activator of transcription 1); assay: as above

binding [1] | binding [2] | Binder
binds | binds | Epsti1-SRT (epithelial-stromal interaction 1) (protein, UniProt Q8VDI1 1-314) MYTRSKVVGPGLGTSSISRDHAGAGQRRELGLQQNRRQSLEVAAPEGPKMERQGHADQGSAGTYTLIAPNESRRQKIQRIAEQELADLERWKQQNRAKPVYLVPQRLGGSQSEAEVRQKQQLQQMRSKYQQKLKRDESIRIRKEAEEAKFQKMKAIQREKSNKLEEKKQLQEDIRRATFREHHQSKTAELLSRLDTERRNRSACLIAPPATQSSRWKLPVLLRDPSWAGSQAHRDSPQKEDNPRLQKTRDGHQKNKLLETKGQHQEEERAQIHQAEHWRVNNAFLDRLQGKSQPGGLEQSGGCCNMNSTDSWGL
no binding | – | Epsti1 coiled-coil domain deletion (△71-180), SRT-tagged (protein, UniProt Q8VDI1) MYTRSKVVGPGLGTSSISRDHAGAGQRRELGLQQNRRQSLEVAAPEGPKMERQGHADQGSAGTYTLIAPNEHHQSKTAELLSRLDTERRNRSACLIAPPATQSSRWKLPVLLRDPSWAGSQAHRDSPQKEDNPRLQKTRDGHQKNKLLETKGQHQEEERAQIHQAEHWRVNNAFLDRLQGKSQPGGLEQSGGCCNMNSTDSWGL

Source: article PMC11234217
